Laboratory results as given in patent CN115850497A.
These are yes or no findings as the source states them, for the method shown. Some binding calls cover weakened binding; strength is not graded here.

Protein sequences, listed by entry. Tags and fused reporters are not part of them. Lines headed by an entry give the natural chain unless they say otherwise; changes in a name come on top. Chains listed by the source or under a name are the forms on record and can include a tag or linker. Residues count along the entry.
纯化后的YKL-40蛋白 (Western blot sample) (P36222, residues 22-383): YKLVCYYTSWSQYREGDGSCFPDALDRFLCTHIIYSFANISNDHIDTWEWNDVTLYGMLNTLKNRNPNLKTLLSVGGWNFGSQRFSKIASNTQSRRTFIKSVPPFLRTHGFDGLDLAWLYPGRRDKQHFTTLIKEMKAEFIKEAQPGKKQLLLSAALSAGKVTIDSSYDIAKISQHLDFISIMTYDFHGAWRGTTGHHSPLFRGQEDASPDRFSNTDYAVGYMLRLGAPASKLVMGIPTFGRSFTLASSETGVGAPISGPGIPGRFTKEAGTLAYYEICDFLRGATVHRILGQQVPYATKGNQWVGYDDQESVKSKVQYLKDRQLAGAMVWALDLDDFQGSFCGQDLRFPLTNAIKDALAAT
Q YKL-40-347-364-6his (YKL-40 construct lacking residues 347-364) (P36222, form named): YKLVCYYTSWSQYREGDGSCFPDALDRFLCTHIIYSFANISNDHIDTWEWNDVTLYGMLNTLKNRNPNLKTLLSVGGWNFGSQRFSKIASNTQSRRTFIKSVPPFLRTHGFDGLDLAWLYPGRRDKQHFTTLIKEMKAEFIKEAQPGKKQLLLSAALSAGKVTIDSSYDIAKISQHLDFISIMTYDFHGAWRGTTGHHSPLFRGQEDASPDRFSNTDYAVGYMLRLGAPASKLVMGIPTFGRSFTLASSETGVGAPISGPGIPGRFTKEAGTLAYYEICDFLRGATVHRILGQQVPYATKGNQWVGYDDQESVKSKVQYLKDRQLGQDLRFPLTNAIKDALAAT
Q YKL-40-311-328-6his (YKL-40 construct lacking residues 311-328) (P36222, form named): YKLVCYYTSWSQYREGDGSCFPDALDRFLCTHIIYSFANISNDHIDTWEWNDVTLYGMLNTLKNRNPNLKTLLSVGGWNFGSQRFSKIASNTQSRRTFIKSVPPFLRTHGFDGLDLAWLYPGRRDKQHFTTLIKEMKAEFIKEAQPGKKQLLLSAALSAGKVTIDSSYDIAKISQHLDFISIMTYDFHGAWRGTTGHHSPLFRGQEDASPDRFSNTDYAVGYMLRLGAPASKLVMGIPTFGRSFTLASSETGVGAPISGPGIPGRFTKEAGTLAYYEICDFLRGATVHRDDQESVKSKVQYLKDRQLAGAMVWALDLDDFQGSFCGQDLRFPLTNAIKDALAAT
Q YKL-40-329-346-6his (YKL-40 construct lacking residues 329-346) (P36222, form named): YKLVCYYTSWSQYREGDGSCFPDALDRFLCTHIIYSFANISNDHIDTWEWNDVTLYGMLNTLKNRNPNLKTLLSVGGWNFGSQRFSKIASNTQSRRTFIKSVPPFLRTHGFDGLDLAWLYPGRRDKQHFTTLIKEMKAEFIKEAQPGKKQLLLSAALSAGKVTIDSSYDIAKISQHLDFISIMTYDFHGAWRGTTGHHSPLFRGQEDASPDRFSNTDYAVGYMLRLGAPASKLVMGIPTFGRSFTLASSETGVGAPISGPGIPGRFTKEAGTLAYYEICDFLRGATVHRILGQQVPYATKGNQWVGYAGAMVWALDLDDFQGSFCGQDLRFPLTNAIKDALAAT

Columns and labels:
[1] = biological target: 纯化后的YKL-40蛋白 (Western blot sample) (human) (UniProt P36222); test: Western blot of purified YKL-40 after SDS-PAGE
[2] = biological target: Q YKL-40-347-364-6his (YKL-40 construct lacking residues 347-364) (human) (UniProt P36222); test: immunofluorescence on 293T cells transfected with deletion constructs
[3] = biological target: Q YKL-40-311-328-6his (YKL-40 construct lacking residues 311-328) (human) (UniProt P36222); test: as above
[4] = biological target: Q YKL-40-329-346-6his (YKL-40 construct lacking residues 329-346) (human) (UniProt P36222); test: as above

Measured: binding

B1: 重组单克隆抗体10F1 (expressed from 10F1m2a + 10F1mk in 293T cells) (antibody, V domains shown)
VH: EVQLQESGPSLVKPSQTLSLSCSVTGDSITSGYWNWIRKFPGNKLEYMGFISYSGNTYYNPSLKSRISITRDTSKNQYFLQLNSVTTEDTATYYCVRKGDYDGAWFAYWGQGTLVTVSA
VL: DIQMTQSPASLSASVGETVTITCRASGNIHNYLAWYQQKQGKSPQLLVYNAKTLADGVPSRFSGSGSGTQYSLKINSLQPEDFGSYYCQHFWSTPLTFGAGTKLELK
binds: [1] | [2] | [3] | [4]
